These are yes or no findings as the source states them, for the method shown. In cells and extracts the contact can be indirect. Binding can be weak; no strength is given. Where a sequence is shown, tags or fusion partners need not be part of it.
Molecular target: T1, Nord-HA (Drosophila) (UniProt Q9W192)
T1 sequence: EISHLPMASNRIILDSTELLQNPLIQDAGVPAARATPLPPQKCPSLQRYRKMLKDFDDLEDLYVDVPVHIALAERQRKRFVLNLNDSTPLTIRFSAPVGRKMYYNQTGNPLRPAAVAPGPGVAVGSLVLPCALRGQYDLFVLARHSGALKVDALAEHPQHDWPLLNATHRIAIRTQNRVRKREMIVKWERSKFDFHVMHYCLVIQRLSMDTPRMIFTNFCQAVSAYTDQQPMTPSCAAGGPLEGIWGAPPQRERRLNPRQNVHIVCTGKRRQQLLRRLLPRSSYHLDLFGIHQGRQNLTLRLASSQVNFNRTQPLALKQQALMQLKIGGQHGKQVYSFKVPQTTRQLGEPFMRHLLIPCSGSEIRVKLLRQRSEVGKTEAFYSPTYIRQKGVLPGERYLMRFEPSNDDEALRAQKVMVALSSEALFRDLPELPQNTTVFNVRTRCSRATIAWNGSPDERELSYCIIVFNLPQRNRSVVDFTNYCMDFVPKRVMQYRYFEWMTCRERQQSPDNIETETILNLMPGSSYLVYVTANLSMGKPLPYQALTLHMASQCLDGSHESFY
Assay: co-IP

The chains behind the UniProt entries cited, without tags or fusion partners. Where a name states a change or a piece, a line headed by the entry shows the natural chain unless it says otherwise.
UniProt Q24114: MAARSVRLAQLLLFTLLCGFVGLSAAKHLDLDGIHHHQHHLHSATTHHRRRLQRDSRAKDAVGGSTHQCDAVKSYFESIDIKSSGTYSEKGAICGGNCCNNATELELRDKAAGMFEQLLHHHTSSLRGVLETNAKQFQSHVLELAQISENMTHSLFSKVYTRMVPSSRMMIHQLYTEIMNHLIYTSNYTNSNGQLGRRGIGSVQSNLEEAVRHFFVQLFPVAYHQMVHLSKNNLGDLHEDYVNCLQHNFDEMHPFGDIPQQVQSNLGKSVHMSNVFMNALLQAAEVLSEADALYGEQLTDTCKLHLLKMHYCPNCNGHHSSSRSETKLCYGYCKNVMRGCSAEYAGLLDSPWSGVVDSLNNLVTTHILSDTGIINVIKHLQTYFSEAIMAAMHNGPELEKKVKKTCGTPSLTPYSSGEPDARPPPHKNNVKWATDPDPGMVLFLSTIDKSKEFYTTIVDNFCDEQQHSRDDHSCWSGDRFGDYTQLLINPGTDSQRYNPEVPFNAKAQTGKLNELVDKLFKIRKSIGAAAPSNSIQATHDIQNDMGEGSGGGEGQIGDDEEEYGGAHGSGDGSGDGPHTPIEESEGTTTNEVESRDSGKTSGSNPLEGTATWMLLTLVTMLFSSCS

binding: binds
Substance: Dally^ΔGAG-Myc (from UniProt Q24114)

Reference: doi:10.1101/2021.03.11.434947
